One molecule from patent CN113214399A can be followed below.

Assay [1] has as its target T1, 重组AFP抗原 (甲胎蛋白, α-fetoprotein) (UniProt P02771).
T1 sequence (looked up): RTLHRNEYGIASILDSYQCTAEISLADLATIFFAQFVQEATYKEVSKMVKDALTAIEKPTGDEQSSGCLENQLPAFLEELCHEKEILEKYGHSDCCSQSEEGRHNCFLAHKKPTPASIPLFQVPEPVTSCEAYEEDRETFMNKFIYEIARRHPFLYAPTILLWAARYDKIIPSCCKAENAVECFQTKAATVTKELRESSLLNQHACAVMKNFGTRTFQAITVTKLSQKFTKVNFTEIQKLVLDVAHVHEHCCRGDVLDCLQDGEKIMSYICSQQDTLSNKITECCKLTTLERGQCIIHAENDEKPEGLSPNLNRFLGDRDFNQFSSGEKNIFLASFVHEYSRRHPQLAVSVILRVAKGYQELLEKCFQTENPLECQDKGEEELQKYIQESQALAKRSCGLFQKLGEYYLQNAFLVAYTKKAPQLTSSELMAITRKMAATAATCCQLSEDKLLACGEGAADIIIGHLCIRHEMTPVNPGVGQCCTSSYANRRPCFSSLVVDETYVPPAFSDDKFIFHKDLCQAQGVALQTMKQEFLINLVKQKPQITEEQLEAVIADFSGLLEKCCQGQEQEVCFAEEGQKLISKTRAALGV
The assay can be described thus: Biacore sequential injection on immobilised antigen. Background: Surface plasmon resonance follows binding to a sensor surface in real time, without labels.

For assay [2], the target named is T1, 重组AFP抗原 (甲胎蛋白, α-fetoprotein). The assay can be described thus: ELISA additivity on coated antigen.

No constants are given. Whether binding was seen depends on the method and setting. Some results given as binding are weak or reduced against the parent protein; the word gives no strength.

B1: 抗AFP纳米抗体2F5 (VHH)
VHH: QVQLQESGGGVVQAGGSLRLTCAASESIFSFAAMGWYRQAPGKQRELVARITGGDNINYADSVKGRFTISKDNAKNTVYLQMNSLKPEDTAVYYCNGEGYGSSWFDDGKNYWGKGTQVTVSS
As for B1, the binding result in assay [1] and in assay [2] was “binds” throughout.
